Assay [1] concerns the target human VEGF (ACRO, His tag) (human) (UniProt P15692). In words: ELISA, human VEGF (His tag) coated. (An ELISA detects its analyte on a solid surface through an enzyme-linked reagent.)
The target in the next assay is T1, mouse VEGF-A (mouse) (UniProt Q00731).
T1 sequence (looked up): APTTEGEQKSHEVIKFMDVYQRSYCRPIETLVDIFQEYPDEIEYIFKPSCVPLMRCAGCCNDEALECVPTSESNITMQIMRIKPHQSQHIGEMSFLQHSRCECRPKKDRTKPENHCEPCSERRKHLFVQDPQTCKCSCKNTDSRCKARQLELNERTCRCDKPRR
In words: ELISA, VHH-Fc expression supernatant.

Protein sequences, listed by entry. Tags and fused reporters are not part of them. Lines headed by an entry give the natural chain unless they say otherwise; changes in a name come on top. Chains listed by the source or under a name are the forms on record and can include a tag or linker.
human VEGF-A (P15692, form named): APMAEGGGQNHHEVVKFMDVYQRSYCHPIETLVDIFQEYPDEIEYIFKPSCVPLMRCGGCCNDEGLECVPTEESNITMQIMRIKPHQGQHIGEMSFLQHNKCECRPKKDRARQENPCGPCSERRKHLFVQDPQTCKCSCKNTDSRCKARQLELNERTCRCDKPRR

In a further assay the target is human VEGF-A (human) (UniProt P15692). Nature of the assay: ELISA, VHH-Fc expression supernatant.

These are yes or no findings as the source states them, for the method shown. Some entries that bind do so weakly or less than the wild type.

B1: Strain #48 VHH (VHH, not shown: a dimerising Fc or GST)
VHH: EVQLLESGGGLVQPGGSLRLSCAASGFTFSTSTMSWYRQAPGKERELVSFITSAGATTYYADSVKGRFTMSRDNSKNTVYLQMNSLRAEDTAVYYCRALVTLWNVYWGQGTLVTVSS
On to B1, for which the binding result in assay [1] is reported as “binds”.

B2: Strain #6 VHH (Fc fusion, not shown: a dimerising Fc or GST)
chain: QVQLQESGGGLVQPGGSLRLSCAASGFTFSTSTMSWYRQAPGKERELVAFITSAGATTNYADSVKDRFTMSRDNDKNTVYLQMNVLKPEDTAMYYCRALVTLWNVYWGQGTQVTVSS
Turning to B2, the binding result with mouse VEGF-A (mouse) and with human VEGF-A (human) was “binds” each time.
